Experimental data: patent publication US6423500 (SCHERING, dated 2002)

Chains of the proteins cited; added tags and fusions are not shown. Lines headed by an entry give the natural chain unless they say otherwise; changes in a name come on top.
UniProt P18893: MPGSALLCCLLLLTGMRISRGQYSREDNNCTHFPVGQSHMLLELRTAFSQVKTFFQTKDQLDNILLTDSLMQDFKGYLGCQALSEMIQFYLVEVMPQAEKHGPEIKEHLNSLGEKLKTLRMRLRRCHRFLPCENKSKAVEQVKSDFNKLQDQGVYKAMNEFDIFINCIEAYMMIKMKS

What was measured:
mouse IL-10 receptor [1] = molecular target: T1, mouse IL-10 receptor (mouse, UniProt Q61727 17-575); test: FACS on MC/9 and J774 cells
T1 construct: Expressed on transfected COS7 cells; the native receptor on mouse cell lines (MC/9, J774, WEHI 265.1) is written as this same molecule; also called mIL-10R; mouse IL-10 receptor component
T1 sequence: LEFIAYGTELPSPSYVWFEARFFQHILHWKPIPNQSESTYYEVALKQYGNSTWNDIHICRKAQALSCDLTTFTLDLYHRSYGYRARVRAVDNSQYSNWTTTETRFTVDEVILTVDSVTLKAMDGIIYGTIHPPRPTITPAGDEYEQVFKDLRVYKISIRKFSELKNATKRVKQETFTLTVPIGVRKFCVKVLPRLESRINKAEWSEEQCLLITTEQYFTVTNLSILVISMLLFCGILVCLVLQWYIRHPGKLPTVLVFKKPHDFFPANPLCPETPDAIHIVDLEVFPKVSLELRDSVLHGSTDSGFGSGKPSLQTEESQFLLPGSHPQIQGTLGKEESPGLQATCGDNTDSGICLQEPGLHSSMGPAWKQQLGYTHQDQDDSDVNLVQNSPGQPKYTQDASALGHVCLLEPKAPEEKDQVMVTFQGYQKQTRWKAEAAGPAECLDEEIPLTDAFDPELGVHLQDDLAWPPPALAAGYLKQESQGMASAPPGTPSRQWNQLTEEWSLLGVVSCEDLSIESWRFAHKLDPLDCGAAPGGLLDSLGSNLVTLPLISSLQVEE

mouse IL-10 receptor [2] = molecular target: T1, mouse IL-10 receptor; test: FACS on COS7 cells transfected with mIL-10 receptor clone m3.14
mouse IL-10 receptor [3] = molecular target: T1, mouse IL-10 receptor; test: chemical cross-linking, SDS-PAGE

binding (mouse IL-10 receptor [1]): binds | binding (mouse IL-10 receptor [2]): binds | binding (mouse IL-10 receptor [3]): binds
Substance: FLAG-mouse IL-10 (from UniProt P18893) (ligand)

No constants are given. Whether binding was seen depends on the method and setting. Binding calls can cover weak binding; strength is not graded here.
